Data: patent publication EP2928504B1 (Mersana Therapeutics, Inc., priority 2012, dated 2014)

Assay: peptide synthesis
Conditions: for step yield: late stage modification step; for conjugation yield: conjugation step

Substance | step yield | conjugation yield
AF HPA-Boc-L-Alanine | 75 % yield | 
XMT-A4 N-Boc-D-valine ester | 50% yield | 
XMT-A4-dimethyldiamino ethyl-PABA-Val Cit-Maleimide |  | 46% yield
XMT-A4 Dimethyl-diaminoethyl-PABA-Val Cit-NH2 |  | 54% yield
LTVSPNY-Adoa- PEG12-Thioester |  | 51 % yield
